The values below come from article PMC11482939 (bioRxiv, 2025).

This assay relates to UM cell lines (MP41, MP38, MP46). In words: Concentration-response cell viability, UM cell lines overall. The assay is classed as cell-based. To be noted: Homo sapiens, 72 h, read-out: UM IC50.

Molecules are shown by their SMILES.

Usually IC50 stands for the midpoint of a concentration-inhibition curve.

On to `CN[C@@H]1C[C@H]2O[C@@](C)([C@@H]1OC)n1c3ccccc3c3c4c(c5c6ccccc6n2c5c31)C(=O)NC4` [Staurosporine], for which the IC50 was around 336 nM.
